From PubChem BioAssay record AID624032 (NCATS, 2012).

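Rat S16 Schwann cells stably carrying a firefly luciferase reporter under a PMP22 intronic regulatory element; luminescence measured after 24 h of compound exposure.
Seventeen-point concentration series from about 0.00016 to 58 µM.
Potency is the AC50 from a fitted inhibition curve, the concentration giving half the maximal fitted effect; a lower value means a more potent inhibitor.
Calls follow the activity score from curve class and fit: scores 40–100 are active, 1–39 inconclusive, 0 inactive; all rows here are inconclusive.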

Values are in nM.
Every entry below has the call inconclusive.
Only part of the assay is shown, chiefly results filed as inconclusive.
Potencies fitted to partial, single-point or poorly fitting curves are rough.
Activity scores are not listed here.

structure,Potency (nM),curve as filed
CNC(=O)Oc1ccc2c(c1)[C@]1(C)CCN(C)[C@@H]1N2C,18105,"inhibitor, full curve, poor fit"
CNC[C@H](O)c1cccc(O)c1,1142,"inhibitor, full curve, poor fit"
CC(C)Nc1ccc(Nc2ccccc2)cc1,36125,"inhibitor, partial curve"
CCCCCCCCCC(=O)O[C@H]1CC[C@H]2[C@@H]3CCC4=CC(=O)CC[C@]4(C)[C@H]3CC[C@]12C,32196,"inhibitor, single point"
NCc1cccnc1,11423,"inhibitor, full curve, poor fit"
CN1C(=O)[C@@H](NC(=O)c2cc3ccccc3[nH]2)N=C(c2ccccc2)c2ccccc21,12817,"inhibitor, full curve, poor fit"
O=S(=O)(O)c1cc(O)c2c(N=Nc3ccc(Nc4ccccc4)c4c(S(=O)(=O)O)cccc34)cc(S(=O)(=O)O)cc2c1,9074,"inhibitor, partial curve, poor fit"
C[C@]12C/C(=C/O)C(=O)C[C@@H]1CC[C@@H]1[C@@H]2CC[C@@]2(C)[C@H]1CC[C@]2(C)O,22793,"inhibitor, partial curve, poor fit"
C[C@]12CC[C@H](O)C[C@H]1CCC1C2CC[C@]2(C)[C@@H](c3ccc(=O)oc3)C[C@H]3O[C@]132 (stereo partly drawn),28695,"inhibitor, partial curve"
CC(=O)OCC1=C(C(=O)O)N2C(=O)[C@@H](N)[C@@H]2SC1,34.6,"inhibitor, full curve, poor fit"
C[C@]12CC[C@@H]3c4ccc(O)cc4CC[C@H]3[C@@H]1CCC2OC(=O)CCC1CCCC1 (stereo partly drawn),22793,"inhibitor, partial curve, poor fit"
C#C[C@@]1(O)CC[C@@H]2[C@H]3CCC4=C/C(=N\O)CC[C@H]4[C@@H]3CC[C@]21CC,16136,"inhibitor, partial curve"
COc1ccccc1N1CCN(CC(O)COc2cccc3ccccc23)CC1 (stereo not drawn),36125,"inhibitor, single point"
COc1cccc(N(C)C(=S)Oc2ccc3c(c2)CCCC3)n1,36125,"inhibitor, single point"
CCOC(=O)OC(C)OC1=C(C(=O)Nc2ccccn2)N(C)S(=O)(=O)c2ccccc21 (stereo not drawn),907.4,"inhibitor, full curve, poor fit"
CC(C)CCCC(C)C1CC(=O)C2=C3CCC4CC(O)CCC4(C)C3CCC21C (stereo not drawn),4548,"inhibitor, full curve, poor fit"
CC(CN1c2ccccc2Sc2ccccc21)N(C)C (stereo not drawn),16136,"inhibitor, single point"
Cc1[nH]c(=O)c(C#N)cc1-c1ccncc1,14381,"inhibitor, partial curve, poor fit"
C=C(C)[C@H]1Cc2c(ccc3c2O[C@@H]2COc4cc(OC)c(OC)cc4[C@@H]2C3=O)O1,57.3,"inhibitor, full curve, poor fit"
CCOC(CN1CCN(CC(C)C(=O)c2ccccc2)CC1)c1ccccc1 (stereo not drawn),36125,"inhibitor, single point"
Clc1ccc(C2(Cn3cncn3)OCCO2)c(Cl)c1,36125,"inhibitor, partial curve"
CC(=O)NCCCS(=O)(=O)O,32196,"inhibitor, single point"
COc1ccc(-c2ccc3cc(C(=O)O)ccc3c2)cc1C12CC3CC(CC(C3)C1)C2,114.2,"inhibitor, full curve, poor fit"
C[C@@](Cc1ccc(O)c(O)c1)(NN)C(=O)O,28695,"inhibitor, partial curve, poor fit"
Cc1cn([C@H]2C[C@H](N=[N+]=[N-])[C@@H](CO)O2)c(=O)[nH]c1=O,25574,"inhibitor, partial curve, poor fit"
O=C1c2ccccc2S(=O)(=O)N1CCCCN1CCN(c2ncccn2)CC1,6.4,"inhibitor, full curve, poor fit"
CC(=O)O[C@]1(C(C)=O)CC[C@H]2[C@@H]3C=C(Cl)C4=CC(=O)[C@@H]5C[C@@H]5[C@]4(C)[C@H]3CC[C@@]21C,22793,"inhibitor, partial curve"
OC(c1ccccc1)(c1ccccc1)C1CN2CCC1CC2 (stereo not drawn),18105,"inhibitor, single point"
Cc1c(-c2ccccc2)oc2c(C(=O)OCCN3CCCCC3)cccc2c1=O,2.2,"inhibitor, full curve, poor fit"
O=C(CCCN1CCC(O)(c2ccc(Cl)cc2)CC1)c1ccc(F)cc1,28695,"inhibitor, partial curve"

For reference, 3 entries once more:

Result for C#C[C@@]1(O)CC[C@@H]2[C@H]3CCC4=C/C(=N\O)CC[C@H]4[C@@H]3CC[C@]21CC was Potency 16136 nM (inhibitor, partial curve).
Result for OC(c1ccccc1)(c1ccccc1)C1CN2CCC1CC2 (stereo not drawn) was Potency 18105 nM (inhibitor, single point).
Result for COc1cccc(N(C)C(=S)Oc2ccc3c(c2)CCCC3)n1 was Potency 36125 nM (inhibitor, single point).